Experimental data: PubChem BioAssay AID686937 (Drosophila RNAi Screening Center, 2013)
Assay: 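Knock-downs that reduce output of a secreted reporter enzyme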 (primary screen). System: Drosophila S2 cells expressing secreted horseradish peroxidase. Knock-down reagent: long dsRNA against Drosophila genes. Timing: about 5.5 days (5 days dsRNA, then 12 h reporter induction). Treatment: reporter expression induced after 5 days of dsRNA, read 12 h later; inducer not stated. Measured: 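After 5 days of dsRNA and 12 h of reporter induction, medium peroxidase read by chemiluminescence and scored as per-plate z-score; higher values mean more reporter released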. Direction: z-score: higher = more reporter secreted into medium.
In all, the deposit lists about 23,000 reagents; shown is a random part of those that have a named target and a result. 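Reduced-secretion tags in replicate 1 do not always agree with the z-scores; no criterion for assigning the tags was given.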 Reagents against one gene are numbered here. Names joined by + are all predicted targets of the reagent. Not all columns of the deposit are shown. Reagent sequences are not shown. Not stated in the record: the amount of reagent.

z-score, replicate 1, by gene and reagent
PGRP-LB: #1 0.15
CG15631: #1 0.1
par-6: #1 0.28
CG33096: #1 0.14
CG7168: #1 0.26
CG4000: #1 0.55; #2 0.11
Gr89a: #1 -0.13
CG14400: #1 0.24
robl37BC: #1 0.23
CG13531: #1 0.28
rpr: #1 -0.65
CG42855: #1 0.17
CG11977: #1 0
CG13159: #1 0.48
CG12655: #1 0.42
CG11110: #1 0.38
tpr: #1 0.32
CG13455: #1 0.09
Kap-alpha1: #1 -0.11
Mt2: #1 0.2
CG1640: #1 0.12
CG43322: #1 0.07
Nox: #1 0.41; #2 0.2
Hsp68: #1 0.27
sti: #1 0.22; #2 -0.41
CG10651: #1 0.19
CG14075: #1 0.49
CG42319: #1 0.13; #2 -0.02; #3 0.18
CG32409: #1 -1.98
Mrp4: #1 0.08
Orct2: #1 0.27
CG1468: #1 0.48
elm: #1 -0.06
CG7653: #1 0.22
ATPsynCF6L: #1 0.27
CG5853: #1 0.24; #2 0.58
CG8281: #1 0.44
CG42634 + CG42635: #1 0.16
Scsalpha2: #1 0.24
CG17047: #1 0.33
l(3)neo43: #1 0.04
Rrp40: #1 -1.86
tow: #1 -2.54
CG31999: #1 0.13; #2 0.23

Single entries from the entries so far:
CG12655, z-score, replicate 1: 0.42
CG13159, z-score, replicate 1 → 0.48
CG1640, z-score, replicate 1 → 0.12
CG5853 #1, z-score, replicate 1 = 0.24
CG11977, z-score, replicate 1 → 0
